In US7601728B2, “Bicyclic pyrrole derivatives” (Dainippon Sumitomo Pharma Co., Ltd., priority 2004, dated 2009):
Structures were worked out from names or drawings and are uncertain.

The chains behind the UniProt entries cited, without tags or fusion partners. Residues count along the entry.
UniProt P27487, 39-766 limits assumed: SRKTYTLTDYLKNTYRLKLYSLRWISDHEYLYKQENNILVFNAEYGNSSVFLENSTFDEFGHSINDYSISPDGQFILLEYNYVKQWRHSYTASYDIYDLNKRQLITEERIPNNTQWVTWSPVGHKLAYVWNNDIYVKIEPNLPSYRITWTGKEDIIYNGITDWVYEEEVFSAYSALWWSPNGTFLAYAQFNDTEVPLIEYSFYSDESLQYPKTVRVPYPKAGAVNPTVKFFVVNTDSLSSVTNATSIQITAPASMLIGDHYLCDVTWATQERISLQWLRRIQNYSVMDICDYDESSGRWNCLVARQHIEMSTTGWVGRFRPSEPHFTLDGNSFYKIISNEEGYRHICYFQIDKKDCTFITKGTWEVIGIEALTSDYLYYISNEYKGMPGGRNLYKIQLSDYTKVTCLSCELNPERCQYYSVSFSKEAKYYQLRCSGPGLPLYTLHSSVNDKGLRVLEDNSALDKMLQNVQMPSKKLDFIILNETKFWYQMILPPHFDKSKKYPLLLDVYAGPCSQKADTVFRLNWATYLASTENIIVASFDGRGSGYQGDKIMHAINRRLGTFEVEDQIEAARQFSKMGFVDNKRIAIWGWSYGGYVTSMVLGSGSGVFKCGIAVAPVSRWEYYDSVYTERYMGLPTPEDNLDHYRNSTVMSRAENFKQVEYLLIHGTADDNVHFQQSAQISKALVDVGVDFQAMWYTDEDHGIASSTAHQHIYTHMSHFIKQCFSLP

Target: Human DPP IV (Homo sapiens, UniProt P27487)
Assay: In Vitro DPP-IV Inhibitory Effect Measurement Test
Assay type: biochemical
Conditions: read-out: Human DPP IV inhibiting activity IC50; human serum containing DPP-IV enzyme; substrate Glycyl-L-Proline 4-Methyl-Coumaryl-7-Amide 10 to 100 μM; room temperature; fluorescence 360/460 nm; tested form: CF3CO2H

Question: For Cn1c(=O)c2c(c(C=O)c(N3CCC[C@@H](N)C3)n2Cc2ccccc2Cl)n(C)c1=O, which IC50 is on record?
Answer: Its IC50 is 28 nM.
